Laboratory results taken from doi:10.1101/2021.12.22.473884.
Results are given in words; binding and its absence hold for the method and conditions named. In cells and extracts the contact can be indirect. Some results given as binding are weak or reduced against the parent protein; the word gives no strength. Tags and fused reporters may be left off the sequences shown.

Columns and labels:
Experiment in all cases: co-IP
[1] = molecular target: T1, Flag-Fbxo7 WT (human) (UniProt Q9Y3I1)
T1 sequence: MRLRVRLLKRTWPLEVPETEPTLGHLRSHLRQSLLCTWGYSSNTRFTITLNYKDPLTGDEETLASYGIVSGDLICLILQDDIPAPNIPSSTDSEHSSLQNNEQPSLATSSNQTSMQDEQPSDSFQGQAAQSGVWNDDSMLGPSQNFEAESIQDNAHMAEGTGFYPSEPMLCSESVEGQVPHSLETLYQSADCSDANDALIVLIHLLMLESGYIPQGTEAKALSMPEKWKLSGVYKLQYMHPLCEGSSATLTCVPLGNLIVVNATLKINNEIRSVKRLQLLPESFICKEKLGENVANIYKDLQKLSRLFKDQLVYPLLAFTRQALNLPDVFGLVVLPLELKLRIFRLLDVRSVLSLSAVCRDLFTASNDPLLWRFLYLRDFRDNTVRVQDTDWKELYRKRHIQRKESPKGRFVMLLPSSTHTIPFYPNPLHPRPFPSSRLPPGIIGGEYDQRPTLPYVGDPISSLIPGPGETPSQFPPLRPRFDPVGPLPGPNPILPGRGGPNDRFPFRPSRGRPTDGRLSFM

[2] = molecular target: T2, FLAG-tagged WT PI31 (UniProt Q92530)
T2 sequence: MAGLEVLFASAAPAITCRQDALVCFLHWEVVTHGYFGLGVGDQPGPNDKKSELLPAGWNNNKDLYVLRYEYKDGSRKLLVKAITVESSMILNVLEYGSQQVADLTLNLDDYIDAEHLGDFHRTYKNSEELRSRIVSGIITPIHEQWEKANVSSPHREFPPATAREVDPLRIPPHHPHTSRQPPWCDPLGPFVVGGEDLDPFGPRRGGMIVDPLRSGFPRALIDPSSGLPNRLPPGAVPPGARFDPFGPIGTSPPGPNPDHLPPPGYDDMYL

[3] = molecular target: T3, Fbxo7 R498X (human) (UniProt Q9Y3I1)
T3 sequence: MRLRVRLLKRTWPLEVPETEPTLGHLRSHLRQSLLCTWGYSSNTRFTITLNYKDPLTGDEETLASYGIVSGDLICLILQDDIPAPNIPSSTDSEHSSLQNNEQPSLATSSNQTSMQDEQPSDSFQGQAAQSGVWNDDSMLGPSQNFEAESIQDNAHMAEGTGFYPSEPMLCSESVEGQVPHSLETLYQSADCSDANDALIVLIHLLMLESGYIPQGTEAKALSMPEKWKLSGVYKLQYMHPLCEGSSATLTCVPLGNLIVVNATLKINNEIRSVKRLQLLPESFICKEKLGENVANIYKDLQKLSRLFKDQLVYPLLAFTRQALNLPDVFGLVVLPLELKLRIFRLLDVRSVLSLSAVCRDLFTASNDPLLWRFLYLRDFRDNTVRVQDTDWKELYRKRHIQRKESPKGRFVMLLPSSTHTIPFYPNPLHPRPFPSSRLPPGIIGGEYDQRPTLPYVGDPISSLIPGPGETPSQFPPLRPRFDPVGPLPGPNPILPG

[4] = molecular target: T4, FLAG-Fbxo7 (aa169-398) (human) (UniProt Q9Y3I1)
T4 sequence: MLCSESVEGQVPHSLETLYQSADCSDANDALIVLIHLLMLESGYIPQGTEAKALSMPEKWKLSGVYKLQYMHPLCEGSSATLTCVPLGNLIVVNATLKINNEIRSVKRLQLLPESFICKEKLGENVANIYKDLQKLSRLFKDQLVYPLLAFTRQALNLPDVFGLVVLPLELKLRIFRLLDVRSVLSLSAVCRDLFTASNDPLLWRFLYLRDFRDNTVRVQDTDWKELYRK

[5] = molecular target: T5, FLAG-tagged PI31ΔC (aa1-189) (UniProt Q92530)
T5 sequence: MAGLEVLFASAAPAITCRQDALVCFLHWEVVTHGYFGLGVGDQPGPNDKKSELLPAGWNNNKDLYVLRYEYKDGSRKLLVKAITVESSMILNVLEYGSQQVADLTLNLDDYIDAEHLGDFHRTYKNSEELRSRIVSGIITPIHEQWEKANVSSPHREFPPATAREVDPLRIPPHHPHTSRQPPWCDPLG

[6] = molecular target: T6, Fbxo7 R378G (human) (UniProt Q9Y3I1)
T6 sequence: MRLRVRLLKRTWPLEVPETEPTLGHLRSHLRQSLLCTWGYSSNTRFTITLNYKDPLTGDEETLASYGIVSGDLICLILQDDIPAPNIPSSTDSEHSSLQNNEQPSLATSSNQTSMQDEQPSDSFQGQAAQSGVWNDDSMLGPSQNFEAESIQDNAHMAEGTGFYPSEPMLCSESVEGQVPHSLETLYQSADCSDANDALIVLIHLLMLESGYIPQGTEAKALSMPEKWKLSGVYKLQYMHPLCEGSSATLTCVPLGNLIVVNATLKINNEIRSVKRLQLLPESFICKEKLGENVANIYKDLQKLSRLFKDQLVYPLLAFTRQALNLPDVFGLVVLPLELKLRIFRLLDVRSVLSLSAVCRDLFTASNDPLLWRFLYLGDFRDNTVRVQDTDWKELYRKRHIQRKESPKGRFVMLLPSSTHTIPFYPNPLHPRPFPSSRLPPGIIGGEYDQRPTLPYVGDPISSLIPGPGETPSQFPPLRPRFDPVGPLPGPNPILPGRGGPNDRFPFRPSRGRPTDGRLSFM

binding [1]: binds
binding [2]: binds
binding [3]: binds
binding [4]: binds
binding [5]: binds
binding [6]: binds
B1: MiD49-Myc (protein, UniProt Q96C03 1-454)
chain: MAEFSQKRGKRRSDEGLGSMVDFLLANARLVLGVGGAAVLGIATLAVKRFIDRATSPRDEDDTKADSWKELSLLKATPHLQPRPPPAALSQPVLPLAPSSSAPEGPAETDPEVTPQLSSPAPLCLTLQERLLAFERDRVTIPAAQVALAKQLAGDIALELQAYFRSKFPELPFGAFVPGGPLYDGLQAGAADHVRLLVPLVLEPGLWSLVPGVDTVARDPRCWAVRRTQLEFCPRGSSPWDRFLVGGYLSSRVLLELLRKALAASVNWPAIGSLLGCLIRPSMASEELLLEVQHERLELTVAVLVAVPGVDADDRLLLAWPLEGLAGNLWLQDLYPVEAARLRALDDHDAGTRRRLLLLLCAVCRGCSALGQLGRGHLTQVVLRLGEDNVDWTEEALGERFLQALELLIGSLEQASLPCHFNPSVNLFSSLREEEIDDIGYALYSGLQEPEGLL
